Data: PubChem BioAssay AID504834 (National Center for Advancing Translational Sciences (NCATS), 2011)
Where “and” joins values, the source holds several entries; their conditions need not be identical. Equal values may be shown once. In all, about 320,000 compounds went through this assay and about 22,000 (6.9%) were called active. Inconclusive means that the source gave no clear call. Such entries were picked first, then a sample of the others. Calls come from the whole dose curve; as a rule, active = well fitted inhibition curve with a large enough effect; inconclusive = small, poorly fitted or top-dose-only effect, or another doubt; inactive = no such curve, though single readings can be large or run the other way. Potencies beside an inconclusive call are fits to weak or partial responses and may not hold up.
% is set by controls: 0 for no effect and ±100 for the full control effect; potency is the fitted concentration of half-maximal effect.

Assay: Primary qHTS for delayed death inhibitors of the malarial parasite plastid, 96 hour incubation
Details: P. falciparum luciferase reporter growth; series mostly up to 28.7 µM; activity change, negative = inhibition: at the top concentration
Summary of the method: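 Readout is luminescence from an integrated firefly luciferase in P. falciparum. Red cells, 2% hematocrit and 0.05% parasitemia final, were cultured with compound through two parasite generations (96 hours) at 37 C, 5% CO2.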
For `COc1ccccc1CNC(=O)CN1C(=O)COc2ccc(S(=O)(=O)N3CCCCC3)cc21`, the “activity change, negative = inhibition” value was inactive: -8.97%. With `C=CCc1c(C)nc(-c2ccccc2)nc1N/N=C/c1ccncc1` the Potency was inconclusive: 18.5 µM [inhibitor, single point]. In the case of `COc1ccc(-c2csc(NC(=O)C3CCN(c4ncnc5sc(C)c(C)c45)CC3)n2)cc1OC`, the Potency is reported as inconclusive: 4.15 µM [inhibitor, partial curve]. For `O=C(NCc1ccco1)c1scc2c1OCCO2`, the “activity change, negative = inhibition” value was inactive: -20.7%. For `CCOc1ccc(NC(=O)CSc2nccn2C)cc1`, the “activity change, negative = inhibition” value was inactive: 179%. With `CCNc1nc(NCC)n2c(SCC(=O)NC34CC5CC(CC(C5)C3)C4)nnc2n1` the Potency was inconclusive: 18.5 µM [inhibitor, single point]. For `Cc1ccc(Sc2ccc(CN3CCCC3)cc2[N+](=O)[O-])cc1`, the Potency was inconclusive: 16.5 µM [inhibitor, partial curve, poor fit]. With `Cc1cc(C)nc(SCc2nnc(SCC#N)n2-c2cccc(Cl)c2)n1` the Potency was inconclusive: 18.5 µM [inhibitor, single point]. With `CN1c2c(nc(N)[nH]c2=O)NCC1CNc1ccc(C(=O)NC(CCC(=O)O)C(=O)O)cc1` (stereo unspecified) the “activity change, negative = inhibition” value was inactive: 18.7%. In the case of `COc1ccc(S(=O)(=O)N2CN3CCN(C3)C2)cc1OC`, the “activity change, negative = inhibition” value is reported as inactive: 8.69%. In the case of `COc1ccc(C/C(O)=C(\C#N)c2nc3ccccc3[nH]2)cc1OC`, the Potency is reported as inconclusive: 0.0074 µM [inhibitor, full curve, poor fit]. In the case of `CCOC(=O)Cc1csc(SCC(=O)Nc2oc(C)c3c(C)n[nH]c(=O)c23)n1`, the Potency is reported as inconclusive: 18.5 µM [inhibitor, single point]. In the case of `COC(=O)C(C)Sc1nnc(-c2ccncc2)o1` (stereo unspecified), the Potency is reported as inconclusive: 10.4 µM [inhibitor, single point]. For `COc1ccc(N2C(=O)CC(S/C(N)=N/N=C/c3ccnc4ccccc34)C2=O)cc1` (stereo unspecified), the “activity change, negative = inhibition” value was inactive: 0%. For `Cc1ccc2[nH]c3nc(SCC#N)nnc3c2c1`, the “activity change, negative = inhibition” value was inactive: 30%. For `S=C(NCc1ccc(Cl)cc1)Nc1ccc(Cl)cc1Cl`, the Potency was inconclusive: 18.5 µM [inhibitor, single point]. In the case of `O=C(CN1CCN(S(=O)(=O)c2ccccc2[N+](=O)[O-])CC1)Nc1ccc(N2CCOCC2)cc1`, the Potency is reported as inconclusive: 11.7 µM [inhibitor, single point]. For `COC(=O)C1=C(C)N(c2cc(C)cc(C)c2)/C(=C/c2ccco2)C1=O`, the “activity change, negative = inhibition” value was inactive: 4.89%. With `COc1ccc(CCNC(=O)CCS(=O)(=O)c2ccc3c(c2)NC(=O)C(C)S3)cc1OC` (stereo unspecified) the “activity change, negative = inhibition” value was inactive: 89.4%. In the case of `COc1cc(NS(C)(=O)=O)ccc1Nc1c2ccccc2nc2ccccc12`, the Potency is reported as active: 953 nM and active: 928 nM. For `Cc1cccc[n+]1CC(=O)Nc1ccc([N+](=O)[O-])cc1`, the Potency was inconclusive: 10.4 µM [inhibitor, single point]. For `N#Cc1nc(-c2ccc(Cl)cc2)oc1NCC1CCCO1` (stereo unspecified), the “activity change, negative = inhibition” value was inactive: 36.7%. In the case of `Cc1cc(SCC(=O)Nc2cccc(S(=O)(=O)NC3=NCCCCC3)c2)nc2ccccc12`, the Potency is reported as inconclusive: 13.1 µM [inhibitor, partial curve, poor fit]. For `Cc1ccc(CCCOC(=O)C[N+]2(C)CCCCC2)cc1`, the Potency was inconclusive: 13.1 µM [inhibitor, single point]. With `CS(=O)(=O)Nc1ccc(C2=NN(C(=O)C3CCCCC3)C(c3cccs3)C2)cc1` (stereo unspecified) the Potency was inconclusive: 11.7 µM [inhibitor, partial curve]. In the case of `COc1ccc(NC(=O)C2CCCN(C(=O)Nc3ccc(OC)cc3)C2)cc1` (stereo unspecified), the Potency is reported as active: 10.4 µM. In the case of `N#Cc1ccc(OS(=O)(=O)c2ccc(-c3ccon3)s2)cc1`, the Potency is reported as inconclusive: 14.7 µM [inhibitor, partial curve, poor fit]. With `O=c1[nH]c(=S)[nH]c2c1C(c1cc([N+](=O)[O-])c(N3CCOCC3)cc1N1CCOCC1)O2` (stereo unspecified) the Potency was inconclusive: 10.4 µM [inhibitor, partial curve]. With `COc1ccc(NC(=S)Nc2cccc([N+](=O)[O-])c2)cc1` the “activity change, negative = inhibition” value was inactive: 78.5%. With `CCCCN(C)CCOc1ccccc1OCC` the Potency was inconclusive: 18.5 µM [inhibitor, single point]. For `CC(=O)c1ccc(NC(=S)N2CCCCCC2)cc1`, the “activity change, negative = inhibition” value was inactive: 3.18%. In the case of `COCC(=O)Nc1cc(C(=O)NCCc2ccccc2)ccc1Cl`, the “activity change, negative = inhibition” value is reported as inactive: 219%. In the case of `c1ccc(C(c2nnnn2C2CCCCC2)N2CCc3ccccc3C2)nc1` (stereo unspecified), the Potency is reported as inconclusive: 9.28 µM [inhibitor, partial curve, poor fit]. With `C/C(=N\NC(=O)CCCCCNC(=O)c1ccccc1)c1ccccc1O` the Potency was inconclusive: 18.5 µM [inhibitor, single point]. With `Cc1ccc(OCCOCCOc2ccc(Br)cc2/C=N\NC(=O)c2ccncc2)cc1` the Potency was active: 5.22 µM. In the case of `O=C(NCCc1ccc(Cl)cc1Cl)C1=CC=CN2CCS(=O)(=O)N=C12`, the “activity change, negative = inhibition” value is reported as inactive: -0.509%. For `CCC(=O)Nc1cc(-c2nn(C)c(=O)c3ccccc23)ccc1OC`, the Potency was inconclusive: 11.7 µM [inhibitor, partial curve]. With `CC(NC(=O)C1CCN(S(=O)(=O)c2cc([N+](=O)[O-])ccc2Cl)CC1)c1ccccc1` (stereo unspecified) the “activity change, negative = inhibition” value was inactive: -8.11%. With `CCOC(=O)c1csc(NC(=O)CSc2nnc(C3CC3)n2C)n1` the Potency was inconclusive: 13.1 µM [inhibitor, partial curve, poor fit]. With `CCCOc1cccc(-c2cc(C(=O)N/N=C/c3cccnc3)c3ccccc3n2)c1` the Potency was inconclusive: 11.7 µM [inhibitor, single point]. In the case of `O=C(CCN1C(=O)C2CC=CCC2C1=O)Nc1nc(-c2ccc(F)c(F)c2)cs1` (stereo unspecified), the Potency is reported as inconclusive: 18.5 µM [inhibitor, single point]. In the case of `CCN(CC)S(=O)(=O)c1ccc2c3c(cccc13)C(=O)S2`, the Potency is reported as inconclusive: 0.0738 µM [inhibitor, full curve, poor fit]. For `CCNC(=O)COC(=O)c1[nH]c(C)c(C(=O)OC)c1C`, the “activity change, negative = inhibition” value was inactive: 305%. With `O=C(O)c1ccc(S(=O)(=O)c2ccccc2C(=O)O)c([N+](=O)[O-])c1` the “activity change, negative = inhibition” value was inactive: 12.4%. For `COc1cc(C(=O)NC2=NCCS2)ccc1OCc1c(C)noc1C`, the Potency was inconclusive: 18.5 µM [inhibitor, single point]. In the case of `CSc1nnc(CNC(=O)C23CC4CC(CC(C4)C2)C3)n1Cc1ccccc1`, the Potency is reported as inconclusive: 4.65 µM [inhibitor, partial curve, poor fit].
